Source: article PMC8014998
These are yes or no findings as the source states them, for the method shown. Binding seen in cells or lysates may run through a third protein. Here binding means that the protein was enriched with, or labelled near, the bait; the list need not be complete.

By UniProt entry, the sequences of proteins in these tests, tags left out. Residues count along the entry.
UniProt O88696, residues 53-272: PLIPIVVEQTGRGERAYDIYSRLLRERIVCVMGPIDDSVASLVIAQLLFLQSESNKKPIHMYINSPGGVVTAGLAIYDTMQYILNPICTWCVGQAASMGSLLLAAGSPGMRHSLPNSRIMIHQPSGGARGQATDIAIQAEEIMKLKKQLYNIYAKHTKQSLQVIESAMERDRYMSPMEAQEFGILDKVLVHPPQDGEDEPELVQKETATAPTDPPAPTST

Molecular target: CLPP-WT-FLAG (UniProt O88696)
Experiment: affinity purification with mass spectrometry; substrate trapping: CLPP-WT-FLAG, CLPP-TRAP-FLAG or empty vector (NEG) expressed in three Clpp-/- MEF lines; whole cell lysates in IP buffer with anti-FLAG magnetic beads over night at 4 °C; 4 washes; eluates by label-free LC-MS; multi-sample ANOVA, FDR <0.05

- binding: binds
B1: C1QBP/P32 (protein, UniProt O35658 71-278)
chain: LHTEGDKAFVEFLTDEIKEEKKIQKHKSLPKMSGDWELEVNGTEAKLLRKVAGEKITVTFNINNSIPPTFDGEEEPSQGQKAEEQEPERTSTPNFVVEVTKTDGKKTLVLDCHYPEDEIGHEDEAESDIFSIKEVSFQATGDSEWRDTNYTLNTDSLDWALYDHLMDFLADRGVDNTFADELVELSTALEHQEYITFLEDLKSFVKNQ
